Results are given in words; binding and its absence hold for the method and conditions named. Binding seen in cells or lysates may run through a third protein. Some results given as binding are weak or reduced against the parent protein; the word gives no strength.

Sequences of proteins named here, by UniProt entry; tags and fusion partners are left off. Residues count along the entry.
UniProt Q9NXA8, residues 37-310: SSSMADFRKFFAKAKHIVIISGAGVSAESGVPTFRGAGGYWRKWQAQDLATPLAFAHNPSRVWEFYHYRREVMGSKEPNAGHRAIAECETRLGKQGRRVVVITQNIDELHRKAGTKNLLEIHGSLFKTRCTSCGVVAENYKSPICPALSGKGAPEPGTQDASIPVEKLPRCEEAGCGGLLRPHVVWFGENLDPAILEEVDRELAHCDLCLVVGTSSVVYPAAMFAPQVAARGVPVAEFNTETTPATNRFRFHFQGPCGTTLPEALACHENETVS

The assay addresses Sirtuin 5 (SIRT5) (human (endogenous in A2058)) (UniProt Q9NXA8). Description: co-IP.

B1: MTHFD1L (methylenetetrahydrofolate dehydrogenase (NADP+ dependent) 1 like) (enzyme, UniProt Q6UB35 32-978)
chain: SSGGGGGGGGGREGLLGQRRPQDGQARSSCSPGGRTPAARDSIVREVIQNSKEVLSLLQEKNPAFKPVLAIIQAGDDNLMQEINQNLAEEAGLNITHICLPPDSSEAEIIDEILKINEDTRVHGLALQISENLFSNKVLNALKPEKDVDGVTDINLGKLVRGDAHECFVSPVAKAVIELLEKSGVNLDGKKILVVGAHGSLEAALQCLFQRKGSMTMSIQWKTRQLQSKLHEADIVVLGSPKPEEIPLTWIQPGTTVLNCSHDFLSGKVGCGSPRIHFGGLIEEDDVILLAAALRIQNMVSSGRRWLREQQHRRWRLHCLKLQPLSPVPSDIEISRGQTPKAVDVLAKEIGLLADEIEIYGKSKAKVRLSVLERLKDQADGKYVLVAGITPTPLGEGKSTVTIGLVQALTAHLNVNSFACLRQPSQGPTFGVKGGAAGGGYAQVIPMEEFNLHLTGDIHAITAANNLLAAAIDTRILHENTQTDKALYNRLVPLVNGVREFSEIQLARLKKLGINKTDPSTLTEEEVSKFARLDIDPSTITWQRVLDTNDRFLRKITIGQGNTEKGHYRQAQFDIAVASEIMAVLALTDSLADMKARLGRMVVASDKSGQPVTADDLGVTGALTVLMKDAIKPNLMQTLEGTPVFVHAGPFANIAHGNSSVLADKIALKLVGEEGFVVTEAGFGADIGMEKFFNIKCRASGLVPNVVVLVATVRALKMHGGGPSVTAGVPLKKEYTEENIQLVADGCCNLQKQIQITQLFGVPVVVALNVFKTDTRAEIDLVCELAKRAGAFDAVPCYHWSVGGKGSVDLARAVREAASKRSRFQFLYDVQVPIVDKIRTIAQAVYGAKDIELSPEAQAKIDRYTQQGFGNLPICMAKTHLSLSHQPDKKGVPRDFILPISDVRASIGAGFIYPLVGTMSTMPGLPTRPCFYDIDLDTETEQVKGLF
With B1, the binding result is “binds”.

For the origin of these results see doi:10.1101/2020.09.07.286526.
